Data: the supplement of paper PMC7661543
± gives the standard deviation of the averaged measurements. The effect of the compound repeats well; differences between the knockouts mostly do not.

Test system: HCC-38
Assay: relative cell number vs DMSO control (72 h) (% of DMSO); higher = less growth inhibition (more cells)
Description: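 QMAP-Seq: a pool of 5 breast cancer cell lines (ZR-75-1, SKBR3, HCC-38, MDA-MB-231, BT-20), each carrying 12 doxycycline-inducible Cas9 sgRNA perturbations (11 knockouts plus non-targeting sgNT), was treated with compounds for 72 h at four 10-fold doses (10 nM-10 uM or 1 nM-1 uM range). Barcodes were amplified and sequenced, and cell number was interpolated from 293T spike-in standard curves. The result is expressed as % of the median of DMSO wells. Two biological replicates.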

C[C@]12CC[C@@H]3c4ccc(O)cc4C[C@@H](CCCCCCCCC[S+]([O-])CCCC(F)(F)C(F)(F)F)[C@H]3[C@@H]1CC[C@@H]2O (some centres not stated) [Fulvestrant]
Settings	relative cell number
sgRNA knockout: sgATF3, 10 nM	98.7 ± 18
sgRNA knockout: sgATF3, 100 nM	103 ± 11
sgRNA knockout: sgATF3, 1000 nM	110 ± 25
sgRNA knockout: sgATF3, 10000 nM	92.1 ± 6.7
sgRNA knockout: sgATF4, 10 nM	88.1 ± 26
sgRNA knockout: sgATF4, 100 nM	101 ± 9.8
sgRNA knockout: sgATF4, 1000 nM	109 ± 1.7
sgRNA knockout: sgATF4, 10000 nM	93.1 ± 9.7
sgRNA knockout: sgATF6, 10 nM	93.2 ± 3.8
sgRNA knockout: sgATF6, 100 nM	85 ± 7.4
sgRNA knockout: sgATF6, 1000 nM	88.6 ± 11
sgRNA knockout: sgATF6, 10000 nM	108 ± 7.7
sgRNA knockout: sgATG7, 10 nM	81.4 ± 8.7
sgRNA knockout: sgATG7, 100 nM	92.3 ± 2.1
sgRNA knockout: sgATG7, 1000 nM	104 ± 7.3
sgRNA knockout: sgATG7, 10000 nM	97.8 ± 16
sgRNA knockout: sgERN1, 10 nM	85.4 ± 10
sgRNA knockout: sgERN1, 100 nM	108 ± 2.2
sgRNA knockout: sgERN1, 1000 nM	103 ± 12
sgRNA knockout: sgERN1, 10000 nM	94 ± 7.6
sgRNA knockout: sgHSF1, 10 nM	101 ± 1.1
sgRNA knockout: sgHSF1, 100 nM	95.54 ± 0.029
sgRNA knockout: sgHSF1, 1000 nM	97.8 ± 18
sgRNA knockout: sgHSF1, 10000 nM	111 ± 7
sgRNA knockout: sgHSF2, 10 nM	92.1 ± 8.8
sgRNA knockout: sgHSF2, 100 nM	97.8 ± 2.5
sgRNA knockout: sgHSF2, 1000 nM	112 ± 21
sgRNA knockout: sgHSF2, 10000 nM	106 ± 6.7
sgRNA knockout: sgKEAP1, 10 nM	102 ± 8.5
sgRNA knockout: sgKEAP1, 100 nM	98.5 ± 7.2
sgRNA knockout: sgKEAP1, 1000 nM	86.1 ± 5.4
sgRNA knockout: sgKEAP1, 10000 nM	98.52 ± 0.85
sgRNA knockout: sgNFE2L2, 10 nM	81.7 ± 24
sgRNA knockout: sgNFE2L2, 100 nM	107 ± 1.1
sgRNA knockout: sgNFE2L2, 1000 nM	108 ± 2
sgRNA knockout: sgNFE2L2, 10000 nM	83.9 ± 11
sgRNA knockout: sgSLC35F2, 10 nM	104 ± 23
sgRNA knockout: sgSLC35F2, 100 nM	93.3 ± 1.8
sgRNA knockout: sgSLC35F2, 1000 nM	103 ± 12
sgRNA knockout: sgSLC35F2, 10000 nM	88.6 ± 14
sgRNA knockout: sgXBP1, 10 nM	86.9 ± 21
sgRNA knockout: sgXBP1, 100 nM	106 ± 10
sgRNA knockout: sgXBP1, 1000 nM	106 ± 6.9
sgRNA knockout: sgXBP1, 10000 nM	88.6 ± 7

CC[C@H](C)C(=O)O[C@H]1C[C@@H](C)C=C2C=C[C@H](C)[C@H](CC[C@@H]3C[C@@H](O)CC(=O)O3)[C@H]21 [Lovastatin]
Settings	relative cell number
sgRNA knockout: sgATF3, 10 nM	93.2 ± 4.4
sgRNA knockout: sgATF3, 100 nM	83.58 ± 0.76
sgRNA knockout: sgATF3, 1000 nM	96.5 ± 13
sgRNA knockout: sgATF3, 10000 nM	74.5 ± 7
sgRNA knockout: sgATF4, 10 nM	95.9 ± 13
sgRNA knockout: sgATF4, 100 nM	80 ± 6.4
sgRNA knockout: sgATF4, 1000 nM	90.3 ± 20
sgRNA knockout: sgATF4, 10000 nM	76.2 ± 6.3
sgRNA knockout: sgATF6, 10 nM	101 ± 3.2
sgRNA knockout: sgATF6, 100 nM	99.5 ± 6.2
sgRNA knockout: sgATF6, 1000 nM	98.1 ± 12
sgRNA knockout: sgATF6, 10000 nM	72.8 ± 20
sgRNA knockout: sgATG7, 10 nM	94.3 ± 9.6
sgRNA knockout: sgATG7, 100 nM	82.77 ± 0.2
sgRNA knockout: sgATG7, 1000 nM	87 ± 16
sgRNA knockout: sgATG7, 10000 nM	73.1 ± 2.6
sgRNA knockout: sgERN1, 10 nM	86 ± 8.8
sgRNA knockout: sgERN1, 100 nM	86.2 ± 9.9
sgRNA knockout: sgERN1, 1000 nM	93.3 ± 11
sgRNA knockout: sgERN1, 10000 nM	79.3 ± 2.7
sgRNA knockout: sgHSF1, 10 nM	107 ± 13
sgRNA knockout: sgHSF1, 100 nM	92.5 ± 2.4
sgRNA knockout: sgHSF1, 1000 nM	102 ± 22
sgRNA knockout: sgHSF1, 10000 nM	60.9 ± 13
sgRNA knockout: sgHSF2, 10 nM	96.6 ± 10
sgRNA knockout: sgHSF2, 100 nM	82.2 ± 7.9
sgRNA knockout: sgHSF2, 1000 nM	88.6 ± 9.4
sgRNA knockout: sgHSF2, 10000 nM	76.1 ± 4.3
sgRNA knockout: sgKEAP1, 10 nM	129 ± 52
sgRNA knockout: sgKEAP1, 100 nM	80.2 ± 5.8
sgRNA knockout: sgKEAP1, 1000 nM	110 ± 5.3
sgRNA knockout: sgKEAP1, 10000 nM	72.9 ± 2.7
sgRNA knockout: sgNFE2L2, 10 nM	84.9 ± 3.1
sgRNA knockout: sgNFE2L2, 100 nM	81.8 ± 12
sgRNA knockout: sgNFE2L2, 1000 nM	94.9 ± 26
sgRNA knockout: sgNFE2L2, 10000 nM	76.8 ± 2.8
sgRNA knockout: sgSLC35F2, 10 nM	94.7 ± 4.2
sgRNA knockout: sgSLC35F2, 100 nM	79.1 ± 5.6
sgRNA knockout: sgSLC35F2, 1000 nM	94 ± 11
sgRNA knockout: sgSLC35F2, 10000 nM	69.9 ± 3.8
sgRNA knockout: sgXBP1, 10 nM	84.6 ± 2.2
sgRNA knockout: sgXBP1, 100 nM	79.6 ± 2.5
sgRNA knockout: sgXBP1, 1000 nM	97.5 ± 23
sgRNA knockout: sgXBP1, 10000 nM	78.2 ± 10

O=C(O)CCCc1ccc(N(CCCl)CCCl)cc1 [Chlorambucil]
Settings	relative cell number
sgRNA knockout: sgATF3, 10 nM	99.7 ± 6.6
sgRNA knockout: sgATF3, 100 nM	110 ± 9.3
sgRNA knockout: sgATF3, 1000 nM	110 ± 2.9
sgRNA knockout: sgATF3, 10000 nM	73.2 ± 8.1
sgRNA knockout: sgATF4, 10 nM	92.2 ± 5.4
sgRNA knockout: sgATF4, 100 nM	100 ± 20
sgRNA knockout: sgATF4, 1000 nM	103 ± 10
sgRNA knockout: sgATF4, 10000 nM	69.4 ± 9.2
sgRNA knockout: sgATF6, 10 nM	97.6 ± 5.2
sgRNA knockout: sgATF6, 100 nM	117 ± 17
sgRNA knockout: sgATF6, 1000 nM	110 ± 15
sgRNA knockout: sgATF6, 10000 nM	69.27 ± 0.64
sgRNA knockout: sgATG7, 10 nM	91.6 ± 5.6
sgRNA knockout: sgATG7, 100 nM	102 ± 34
sgRNA knockout: sgATG7, 1000 nM	113 ± 4.4
sgRNA knockout: sgATG7, 10000 nM	68.5 ± 3.9
sgRNA knockout: sgERN1, 10 nM	91.4 ± 12
sgRNA knockout: sgERN1, 100 nM	101 ± 8.2
sgRNA knockout: sgERN1, 1000 nM	101 ± 18
sgRNA knockout: sgERN1, 10000 nM	74.1 ± 4.6
sgRNA knockout: sgHSF1, 10 nM	96.9 ± 12
sgRNA knockout: sgHSF1, 100 nM	96.9 ± 24
sgRNA knockout: sgHSF1, 1000 nM	107 ± 15
sgRNA knockout: sgHSF1, 10000 nM	61.8 ± 14
sgRNA knockout: sgHSF2, 10 nM	108.2 ± 0.3
sgRNA knockout: sgHSF2, 100 nM	104 ± 9.4
sgRNA knockout: sgHSF2, 1000 nM	102 ± 23
sgRNA knockout: sgHSF2, 10000 nM	76.2 ± 7.8
sgRNA knockout: sgKEAP1, 10 nM	107 ± 18
sgRNA knockout: sgKEAP1, 100 nM	90.2 ± 7.5
sgRNA knockout: sgKEAP1, 1000 nM	98.7 ± 8.6
sgRNA knockout: sgKEAP1, 10000 nM	72.1 ± 8.2
sgRNA knockout: sgNFE2L2, 10 nM	89 ± 9.2
sgRNA knockout: sgNFE2L2, 100 nM	108 ± 26
sgRNA knockout: sgNFE2L2, 1000 nM	106 ± 4.8
sgRNA knockout: sgNFE2L2, 10000 nM	65.3 ± 4.9
sgRNA knockout: sgSLC35F2, 10 nM	86.5 ± 2.7
sgRNA knockout: sgSLC35F2, 100 nM	97.9 ± 22
sgRNA knockout: sgSLC35F2, 1000 nM	104 ± 9.9
sgRNA knockout: sgSLC35F2, 10000 nM	65 ± 3.1
sgRNA knockout: sgXBP1, 10 nM	88.13 ± 0.34
sgRNA knockout: sgXBP1, 100 nM	108 ± 31
sgRNA knockout: sgXBP1, 1000 nM	106 ± 12
sgRNA knockout: sgXBP1, 10000 nM	70.32 ± 0.67
